Results: patent US8129365B2, “Water-soluble, fluorescent compounds for detection of potassium ions” (The Regents of the University of California, priority 2005, dated 2012)

Test system: brain cortex ECS
Assay: TAC-Red [K^+]o measurements in brain cortex (spreading depression)
Type: in vivo, mice
Description: TAC-Red [K^+]o measurements in brain cortex. Wildtype and AQP4 null mice in a CD1 genetic background (30-35 g body weight/age 10-12 weeks) were used (described in Ma et al. Ma et al. J. Clin. Invest. 100, 957-962 (1997)). These mice are phenotypically normal at baseline and have normal brain architecture; however they manifest altered brain swelling in response to cytotoxic and vasogenic forms of edema. Mice were anesthetized with 2,2,2-tribromoethanol (125 mg/kg, intraperitoneal (ip)) and the head was immobilized in a standard mouse stereotactic frame. Body temperature was maintained at 36-37° C. using a heating pad. The skull was exposed by a midline skin incision. A 2.7 mm diameter circular area of the thin, semi-translucent skull bone located 0.5 mm lateral to the midline and 1 mm posterior to the bregma was removed using a microdrill under microscope to expose intact dura with underlying brain. […]
Fluorescence was measured using a 1.6× objective lens (working distance 24 mm, numerical aperture 0.21), and custom filter set for TAC-Red (HQ, Chroma). […] Fluorescence was imaged using a 14-bit 1024×1024 pixel cooled CCD camera (CoolSnap HQ, Photometrics). […]
Image analysis. […] Half-times (t1/2) for the increasing and decreasing phases of TAC-Red fluorescence were determined by exponential regression analysis. […]
The ECS of mouse brain was stained with TAC-Red by exposing the intact dura (after craniectomy) for 5 minutes to an artificial cerebrospinal fluid (aCSF) solution containing 50 μM TAC-Red. […] This transdural dye labeling approach was developed previously to stain the ECS with fluorescent dextrans for photobleaching measurements (Binder et al. J. Neurosci. 24, 8049-8056 (2004). The TAC-red-stained brain cortex was brightly red fluorescent, with fairly uniform parenchymal staining but no staining of blood vessels. There was little influence of cerebral blood flow on the signal, with less than 2% change in TAC-Red fluorescence when mice breathed 0 vs. 5% CO2.

SMILES	K^+ wave propagation velocity (SE, n=4 mice, from temporal offset in fluorescence profiles) [mm/min]	Change in TAC-Red fluorescence with cerebral blood flow (mice breathed 0 vs. 5% CO2)	Signal changes during spreading depression (non-K^+-sensitive dye used in place of TAC-Red)
COCCOc1cc(-c2c3ccc(=[N+](C)C)cc-3oc3cc(N(C)C)ccc23)ccc1N1CCOc2cc(C)ccc2N2CCOCCOCCN(CCOCCOCC2)c2ccc(C)cc2OCC1.[Cl-] [TAC-Red, {6-Dimethylamino-9-[4-(6,7,9,10,12,13,20,21,23,24-decahydro-2,17-dimethyl-5,14-(ethanoxyethanoxyethano)-5H,14H,22H-dibenzo[h,q][1,4,10,16,7,13,19]tetraoxatriazacyclo-heneicosin-22-yl)-3-(2-methoxyethoxy)phenyl]xanthen-3-ylidene}dimethylammonium chloride]	4.4±0.5	less than 2%	–
O=S(=O)([O-])c1cc(S(=O)(=O)O)ccc1C1=c2cc3c4c(c2Oc2c1cc1c5c2CCCN5CCC1)CCC[N+]=4CCC3 [sulforhodamine 101, reference compound]	–	–	no signal changes
